From article PMC10303200 (ACS Central Science, 2023)

Sequences of proteins named here, by UniProt entry; tags and fusion partners are left off. Residues count along the entry.
UniProt Q9Y286, 19-345 limits assumed: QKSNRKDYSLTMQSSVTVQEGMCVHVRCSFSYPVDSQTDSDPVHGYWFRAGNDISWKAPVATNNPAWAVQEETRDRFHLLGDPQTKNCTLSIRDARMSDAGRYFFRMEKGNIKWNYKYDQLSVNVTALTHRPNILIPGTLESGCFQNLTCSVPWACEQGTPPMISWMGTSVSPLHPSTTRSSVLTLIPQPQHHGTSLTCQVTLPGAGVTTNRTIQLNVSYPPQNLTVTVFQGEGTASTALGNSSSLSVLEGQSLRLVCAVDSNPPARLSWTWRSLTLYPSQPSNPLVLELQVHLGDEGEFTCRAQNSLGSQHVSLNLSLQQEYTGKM

Biological target: Sig7-Fc (Homo sapiens, UniProt Q9Y286)
Assay: COIN-CaR-nMS
Conditions: N-glycan natural libraries and purified oligosaccharides; pH 6.9
Excerpt: For most glycosylated GBPs, glycan binding measurements by nMS are challenging because the heterogeneity (micro- and macroheterogeniety) of GBP species makes quantifying the free and ligand-bound glycoforms difficult. As a result, detection of glycan ligands of glycosylated GBPs is usually performed using CaR-nMS. In CaR-nMS, glycan ligands bound (noncovalently) to a GBP are released as ions in the gas phase by collisional activation of the GBP-glycan complexes and detected. The results of CaR-nMS screening performed on glycan libraries of known concentrations enable GBP-glycan affinity rankings to be constructed from the relative abundances of released ligands. Generating titration curves from the relative abundances of released ligands in CaR-nMS experiments is generally not possible due to tip-to-tip variability in released ligand signal. The COIN approach enables quantification with CaR-nMS (COIN-CaR-nMS). […] Because PL dissociates to free P and L in the COIN-CaR-nMS experiment, Ft is calculated from eq 14 [drawing 19] […]
COIN-CaR-nMS measurements were also performed on SNA in the presence of two ligands (G21 and G23) at varying relative concentrations—G21 (30 μM) and G23 (10 nM–10 μM). Importantly, the measured Kd were insensitive to the relative concentrations (Table S7). […]
The time-resolved glycan concentrations were calculated from the known affinity (K d) of the […]

For `CC(=O)N[C@H]1[C@H](O[C@@H]2[C@H](O[C@]3(C(=O)O)C[C@H](O)[C@@H](NC(C)=O)[C@H]([C@H](O)[C@@H](CO)O[C@]4(C(=O)O)C[C@H](O)[C@@H](NC(C)=O)[C@H]([C@H](O)[C@@H](CO)O[C@]5(C(=O)O)C[C@H](O)[C@@H](NC(C)=O)[C@H]([C@H](O)[C@H](O)CO)O5)O4)O3)[C@@H](O)[C@H](O[C@H]3[C@H](O)[C@@H](O)C(O)O[C@@H]3CO)O[C@@H]2CO)O[C@H](CO)[C@H](O)[C@@H]1O[C@@H]1O[C@H](CO)[C@H](O)[C@H](O)[C@H]1O` (stereo partly shown), the Kd was “NQ”.

The match of structure and compound is tentative.
